Test results as given in EP0136586A2, “Novel corticoid derivatives and process for production thereof” (priority 1983, dated 1985).

System: edema
Assay: Topical anti-inflammatory activity (croton oil ear edema)
Type: in vivo, Male mice of ddY-strain
Conditions: anti-inflammatory activity ratio (A) divided by thymolytic activity ratio (B)
Experimental: 0.9 % sodium chloride, 0.4 % Tween 80, 0.5 % carboxymethyl cellulose and 0.9 % benzyl alcohol are dissolved or suspended in distilled water, which is used as a suspending medium. The compounds to be tested are dissolved in a mixture of the suspending medium : pyridine : diethyl ether = 1 : 4 : 5 and mixed with equal volume of diethyl ether containing 10 % croton oil and the mixture is used as the test liquid. Commercially available felt having a thickness of 5 mm is cut in 7mm x 7 mm square and adhered to ring tweezers using alkyl-a-cyanoacrylate. The felt is soaked in the test liquid and the liquid is applied to the right ear of the mouse by rubbing it with the felt at a fixed pressure without anesthesia. The left ear is left untreated. At 5th hours after application, mice are killed and both of the ears are cut and weighed. The rate (%) of increase in the weight of right ear against that of left ear is calculated as the edema ratio. Edema ratios obtained on the test compounds are compared with those obtained on control and edema-repressing rate is obtained.

Substance	R=A/B
21-chloro-9α-fluoro-16β-mathyl-1,4-pregnadiene-11β,17α-diol-3,6,20-trione 17α-methyl carbonate [Example 2]	167
21-chloro-9α-fluoro-16β-methyl-1,4-pregnadiene-11β,17α-diol-3,6,20-trione 17a-ethyl carbonate [Example 4]	27
